Results on one molecule are retold here after paper doi:10.1101/2020.07.24.220640.

By UniProt entry, the sequences of proteins in these tests, tags left out.
UniProt P13395: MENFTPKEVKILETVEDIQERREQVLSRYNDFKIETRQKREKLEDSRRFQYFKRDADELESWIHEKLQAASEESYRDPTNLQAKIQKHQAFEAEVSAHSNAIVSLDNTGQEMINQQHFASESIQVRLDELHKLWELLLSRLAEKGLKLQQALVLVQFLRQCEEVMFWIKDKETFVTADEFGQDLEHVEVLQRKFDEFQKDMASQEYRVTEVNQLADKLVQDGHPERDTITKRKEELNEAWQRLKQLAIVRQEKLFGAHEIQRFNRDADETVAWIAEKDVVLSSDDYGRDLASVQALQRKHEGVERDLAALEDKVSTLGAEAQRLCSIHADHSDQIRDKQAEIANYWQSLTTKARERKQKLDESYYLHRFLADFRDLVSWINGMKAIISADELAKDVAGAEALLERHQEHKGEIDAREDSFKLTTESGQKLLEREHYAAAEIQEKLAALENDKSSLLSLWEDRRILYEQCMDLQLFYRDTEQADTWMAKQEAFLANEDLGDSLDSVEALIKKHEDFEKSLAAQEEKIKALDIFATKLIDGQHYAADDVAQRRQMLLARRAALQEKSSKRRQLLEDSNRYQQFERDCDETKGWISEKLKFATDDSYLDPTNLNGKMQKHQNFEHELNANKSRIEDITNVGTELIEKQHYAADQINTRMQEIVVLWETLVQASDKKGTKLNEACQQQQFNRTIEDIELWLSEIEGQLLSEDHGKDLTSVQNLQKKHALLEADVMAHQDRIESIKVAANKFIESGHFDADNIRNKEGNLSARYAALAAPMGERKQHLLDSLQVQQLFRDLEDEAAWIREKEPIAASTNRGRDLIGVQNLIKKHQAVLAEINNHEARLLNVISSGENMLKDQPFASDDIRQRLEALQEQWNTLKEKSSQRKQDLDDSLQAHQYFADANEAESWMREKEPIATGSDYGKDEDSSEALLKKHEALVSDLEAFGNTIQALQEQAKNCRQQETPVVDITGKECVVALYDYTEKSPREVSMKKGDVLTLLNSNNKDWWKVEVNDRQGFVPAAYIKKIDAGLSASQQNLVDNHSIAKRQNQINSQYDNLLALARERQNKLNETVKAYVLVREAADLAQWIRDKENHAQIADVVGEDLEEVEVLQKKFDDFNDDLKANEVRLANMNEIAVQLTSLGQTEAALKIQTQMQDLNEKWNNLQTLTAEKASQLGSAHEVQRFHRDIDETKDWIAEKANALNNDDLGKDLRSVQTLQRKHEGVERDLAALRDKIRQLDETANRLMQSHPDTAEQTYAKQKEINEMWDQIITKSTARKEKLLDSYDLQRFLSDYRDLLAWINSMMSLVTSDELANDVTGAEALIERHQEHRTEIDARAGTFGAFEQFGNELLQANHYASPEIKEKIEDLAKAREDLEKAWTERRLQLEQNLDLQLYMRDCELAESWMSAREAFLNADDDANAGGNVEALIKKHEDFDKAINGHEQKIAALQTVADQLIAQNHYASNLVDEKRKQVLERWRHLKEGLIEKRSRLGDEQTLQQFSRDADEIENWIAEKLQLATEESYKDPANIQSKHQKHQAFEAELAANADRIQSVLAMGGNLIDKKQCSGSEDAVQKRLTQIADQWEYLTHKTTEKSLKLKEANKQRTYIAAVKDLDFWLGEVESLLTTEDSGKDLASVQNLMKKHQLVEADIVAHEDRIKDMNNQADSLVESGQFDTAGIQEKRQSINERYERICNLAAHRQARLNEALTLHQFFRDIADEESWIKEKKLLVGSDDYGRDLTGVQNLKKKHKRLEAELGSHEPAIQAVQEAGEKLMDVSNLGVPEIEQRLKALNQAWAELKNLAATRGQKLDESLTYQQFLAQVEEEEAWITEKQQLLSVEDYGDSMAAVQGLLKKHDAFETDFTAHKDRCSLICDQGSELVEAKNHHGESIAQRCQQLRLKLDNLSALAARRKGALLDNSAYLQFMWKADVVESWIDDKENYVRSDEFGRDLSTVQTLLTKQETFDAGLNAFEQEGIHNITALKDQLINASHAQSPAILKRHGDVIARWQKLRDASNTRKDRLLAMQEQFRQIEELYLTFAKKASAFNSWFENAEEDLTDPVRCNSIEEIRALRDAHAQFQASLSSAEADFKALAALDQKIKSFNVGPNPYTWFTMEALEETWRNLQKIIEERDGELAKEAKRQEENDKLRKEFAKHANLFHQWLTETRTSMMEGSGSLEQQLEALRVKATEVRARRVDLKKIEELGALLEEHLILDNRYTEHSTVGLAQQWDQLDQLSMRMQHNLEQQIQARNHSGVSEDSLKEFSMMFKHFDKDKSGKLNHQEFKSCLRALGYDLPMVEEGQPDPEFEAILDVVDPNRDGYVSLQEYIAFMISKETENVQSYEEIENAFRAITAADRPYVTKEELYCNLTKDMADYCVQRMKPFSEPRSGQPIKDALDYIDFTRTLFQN

Results are given in words; binding and its absence hold for the method and conditions named. In cells and extracts the contact can be indirect. Here binding means that the protein was enriched with, or labelled near, the bait; the list need not be complete.

For the assay, the target named is α-Spectrin (Drosophila melanogaster (endogenous in testis)) (UniProt P13395). Put plainly: affinity purification with mass spectrometry.

B1: Hsp27 (protein, UniProt P02518 1-213)
chain: MSIIPLLHLARELDHDYRTDWGHLLEDDFGFGVHAHDLFHPRRLLLPNTLGLGRRRYSPYERSHGHHNQMSRRASGGPNALLPAVGKDGFQVCMDVSQFKPNELTVKVVDNTVVVEGKHEEREDGHGMIQRHFVRKYTLPKGFDPNEVVSTVSSDGVLTLKAPPPPSKEQAKSERIVQIQQTGPAHLSVKAPAPEAGDGKAENGSGEKMETSK
Take B1: the binding result is listed as “binds”.
